From PMC3351392
These are yes or no findings as the source states them, for the method shown. In cells and extracts the contact can be indirect. Binding can be weak; no strength is given.

The chains behind the UniProt entries cited, without tags or fusion partners. Where a name states a change or a piece, a line headed by the entry shows the natural chain unless it says otherwise.
UniProt Q92558: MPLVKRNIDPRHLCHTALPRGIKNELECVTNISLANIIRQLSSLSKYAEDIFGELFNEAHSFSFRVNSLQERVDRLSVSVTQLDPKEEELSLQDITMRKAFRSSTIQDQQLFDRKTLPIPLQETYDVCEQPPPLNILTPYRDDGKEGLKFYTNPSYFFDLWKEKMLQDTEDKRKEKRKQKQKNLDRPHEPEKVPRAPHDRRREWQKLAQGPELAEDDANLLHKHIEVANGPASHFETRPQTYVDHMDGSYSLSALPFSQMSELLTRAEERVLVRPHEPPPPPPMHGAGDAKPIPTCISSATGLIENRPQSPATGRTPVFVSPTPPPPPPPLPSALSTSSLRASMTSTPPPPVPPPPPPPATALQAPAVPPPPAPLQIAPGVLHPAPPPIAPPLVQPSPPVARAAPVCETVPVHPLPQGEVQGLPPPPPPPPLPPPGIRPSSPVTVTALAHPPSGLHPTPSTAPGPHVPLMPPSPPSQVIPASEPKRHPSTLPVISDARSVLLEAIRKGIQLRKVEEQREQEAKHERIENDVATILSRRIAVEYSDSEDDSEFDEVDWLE

Key:
[1] = target: Flag-WAVE1 lacking the proline peptide used as bait (WAVE1 ΔPro) (UniProt Q92558); test: co-IP; co-expression of tagged proteins in cells, immunoprecipitation from pre-cleared lysates, Western blotting
[2] = target: Flag-tagged full length WAVE1 (UniProt Q92558); test: as above

## GFP-Enah (from UniProt Q03173-3)
[1]
  binding: binds
[2]
  binding: binds
